Laboratory results: PubChem BioAssay AID1224830 (NIAID, 2016)

Aim: 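Regulators of TLR4 signalling towards TNF-alpha in macrophage-like cells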 (primary screen)
Cells: human THP-1 monocytic leukaemia cells, TNF dual-luciferase reporter clone, PMA-differentiated to macrophage-like cells
Reagent: siRNA pool against human genes, 50 nM
Time to read-out: LPS for 4 h, given about 3 days after siRNA transfection
Conditions: bacterial LPS (TLR4 ligand), 10 ng/ml
Measured: 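Ratio of firefly to renilla light, scaled to the plate median and expressed as a robust z-score per replicate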
Reading the numbers: TNF reporter robust z-score: higher = stronger TNF reporter response to LPS
Call rule: 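Each well counts as active if its z-score is over 2.8 or under -1.5; controls are left without a call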
This is one part, drawn at random, of about 18,000 reagents. Over the whole deposit, about 2,900 (16%) were called active. 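Calls are made per well; low scores hint the gene aids the LPS response, high scores that it dampens it.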 Entries without a mark were called inactive. Repeated entries: four replicate wells of each siRNA pool.

gene symbol,PubChem SID,TNF reporter robust z-score
MDM4 (GeneID 4194),SID315449924,-1.07
MDM4 (GeneID 4194),SID315449924,-1.21
MDM4 (GeneID 4194),SID315449924,-0.35
MDM4 (GeneID 4194),SID315449924,-0.69
POLD1 (GeneID 5424),SID315450682,-0.44
POLD1 (GeneID 5424),SID315450682,1.08
POLD1 (GeneID 5424),SID315450682,-0.19
POLD1 (GeneID 5424),SID315450682,0.17
GLO1 (GeneID 2739),SID315448921,1.65
GLO1 (GeneID 2739),SID315448921,2.19
GLO1 (GeneID 2739),SID315448921,0.15
GLO1 (GeneID 2739),SID315448921,1.8
ERICH5 (GeneID 203111),SID315463115,-0.27
ERICH5 (GeneID 203111),SID315463115,0.07
ERICH5 (GeneID 203111),SID315463115,1.37
ERICH5 (GeneID 203111),SID315463115,0.9
CNFN (GeneID 84518),SID315460388,-0.66
CNFN (GeneID 84518),SID315460388,0.46
CNFN (GeneID 84518),SID315460388,-0.69
CNFN (GeneID 84518),SID315460388,0.35
P3H3 (GeneID 10536),SID315454170,0.29
P3H3 (GeneID 10536),SID315454170,0.66
P3H3 (GeneID 10536),SID315454170,0.73
P3H3 (GeneID 10536),SID315454170,1.09
DDIT4 (GeneID 54541),SID315457069,0.9
DDIT4 (GeneID 54541),SID315457069,0.12
DDIT4 (GeneID 54541),SID315457069,1.08
DDIT4 (GeneID 54541),SID315457069,0.76
LRRC19 (GeneID 64922),SID315459044,-0.73
LRRC19 (GeneID 64922),SID315459044,-0.7
LRRC19 (GeneID 64922),SID315459044,-0.12
LRRC19 (GeneID 64922),SID315459044,-0.53
KRTAP19-2 (GeneID 337969),SID315463962,0.5
KRTAP19-2 (GeneID 337969),SID315463962,0.7
KRTAP19-2 (GeneID 337969),SID315463962,0.18
KRTAP19-2 (GeneID 337969),SID315463962,0.77
CYP4B1 (GeneID 1580),SID315448218,-0.32
CYP4B1 (GeneID 1580),SID315448218,0.93
CYP4B1 (GeneID 1580),SID315448218,0.4
CYP4B1 (GeneID 1580),SID315448218,0.11
KRT34 (GeneID 3885),SID315449707,1.52
KRT34 (GeneID 3885),SID315449707,0.71
KRT34 (GeneID 3885),SID315449707,3.49 (active)
KRT34 (GeneID 3885),SID315449707,3.69 (active)
CSTF1 (GeneID 1477),SID315448154,2.26
CSTF1 (GeneID 1477),SID315448154,1.49
CSTF1 (GeneID 1477),SID315448154,0.65
CSTF1 (GeneID 1477),SID315448154,3.59 (active)
IPO9 (GeneID 55705),SID315457787,-0.13
IPO9 (GeneID 55705),SID315457787,-0.69
IPO9 (GeneID 55705),SID315457787,0.27
IPO9 (GeneID 55705),SID315457787,-0.18
AURKA (GeneID 6790),SID315451686,0.44
AURKA (GeneID 6790),SID315451686,-0.25
AURKA (GeneID 6790),SID315451686,0.08
AURKA (GeneID 6790),SID315451686,2.77
ADAMDEC1 (GeneID 27299),SID315456018,0.86
ADAMDEC1 (GeneID 27299),SID315456018,0.85
ADAMDEC1 (GeneID 27299),SID315456018,-0.41
ADAMDEC1 (GeneID 27299),SID315456018,1.31
PLCE1 (GeneID 51196),SID315456547,-1.8 (active)
PLCE1 (GeneID 51196),SID315456547,-1.43
PLCE1 (GeneID 51196),SID315456547,-1.32
PLCE1 (GeneID 51196),SID315456547,0.62
KLRG1 (GeneID 10219),SID315453917,-1.27
KLRG1 (GeneID 10219),SID315453917,-1.19
KLRG1 (GeneID 10219),SID315453917,-1.34
KLRG1 (GeneID 10219),SID315453917,-0.87
SQOR (GeneID 58472),SID315458619,-0.47
SQOR (GeneID 58472),SID315458619,-0.05
SQOR (GeneID 58472),SID315458619,-0.59
SQOR (GeneID 58472),SID315458619,-0.17
ALDH8A1 (GeneID 64577),SID315458939,2.27
ALDH8A1 (GeneID 64577),SID315458939,2.09
ALDH8A1 (GeneID 64577),SID315458939,1.86
ALDH8A1 (GeneID 64577),SID315458939,2.42

Entries listed above with an active call:
gene symbol,PubChem SID,TNF reporter robust z-score
KRT34 (GeneID 3885),SID315449707,3.49 (active)
KRT34 (GeneID 3885),SID315449707,3.69 (active)
CSTF1 (GeneID 1477),SID315448154,3.59 (active)
PLCE1 (GeneID 51196),SID315456547,-1.8 (active)
